The target in assay [1] is T1, Ada2-TAP (S. cerevisiae) (UniProt Q02336).
T1 sequence: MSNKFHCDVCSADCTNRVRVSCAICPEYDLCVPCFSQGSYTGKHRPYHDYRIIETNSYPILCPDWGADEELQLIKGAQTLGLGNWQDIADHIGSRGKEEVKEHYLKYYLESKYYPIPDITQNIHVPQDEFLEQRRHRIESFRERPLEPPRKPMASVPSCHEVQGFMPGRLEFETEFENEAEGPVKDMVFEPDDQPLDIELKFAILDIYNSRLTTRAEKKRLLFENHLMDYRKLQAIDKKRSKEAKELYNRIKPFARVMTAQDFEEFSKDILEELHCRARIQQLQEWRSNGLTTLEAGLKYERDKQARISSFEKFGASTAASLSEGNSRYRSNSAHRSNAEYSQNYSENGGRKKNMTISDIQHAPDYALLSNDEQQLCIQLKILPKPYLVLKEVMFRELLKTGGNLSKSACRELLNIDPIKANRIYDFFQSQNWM
Nature of the assay: co-IP; purification of Ada2, Spt20 or Gcn5 from deletion strains (spt20Δ, ada2Δ, sgf73Δ, gcn5Δ), Supplementary Figure S3; tags and read-out not shown.

Chains of the proteins cited; added tags and fusions are not shown.
UniProt Q03330: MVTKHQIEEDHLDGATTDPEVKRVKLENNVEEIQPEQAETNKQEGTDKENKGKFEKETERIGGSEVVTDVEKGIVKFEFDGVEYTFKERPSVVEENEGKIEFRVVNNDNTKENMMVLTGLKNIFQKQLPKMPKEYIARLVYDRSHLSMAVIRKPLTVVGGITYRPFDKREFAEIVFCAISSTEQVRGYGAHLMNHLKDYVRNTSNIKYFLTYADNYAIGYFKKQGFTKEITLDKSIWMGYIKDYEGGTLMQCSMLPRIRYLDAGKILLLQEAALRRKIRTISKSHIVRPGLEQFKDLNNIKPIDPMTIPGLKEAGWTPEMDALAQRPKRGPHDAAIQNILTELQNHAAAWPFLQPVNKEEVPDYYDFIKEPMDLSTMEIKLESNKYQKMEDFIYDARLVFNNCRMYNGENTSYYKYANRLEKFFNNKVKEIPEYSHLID

Assay [2] concerns the target T2, Spt20-TAP (S. cerevisiae) (UniProt P50875).
T2 sequence: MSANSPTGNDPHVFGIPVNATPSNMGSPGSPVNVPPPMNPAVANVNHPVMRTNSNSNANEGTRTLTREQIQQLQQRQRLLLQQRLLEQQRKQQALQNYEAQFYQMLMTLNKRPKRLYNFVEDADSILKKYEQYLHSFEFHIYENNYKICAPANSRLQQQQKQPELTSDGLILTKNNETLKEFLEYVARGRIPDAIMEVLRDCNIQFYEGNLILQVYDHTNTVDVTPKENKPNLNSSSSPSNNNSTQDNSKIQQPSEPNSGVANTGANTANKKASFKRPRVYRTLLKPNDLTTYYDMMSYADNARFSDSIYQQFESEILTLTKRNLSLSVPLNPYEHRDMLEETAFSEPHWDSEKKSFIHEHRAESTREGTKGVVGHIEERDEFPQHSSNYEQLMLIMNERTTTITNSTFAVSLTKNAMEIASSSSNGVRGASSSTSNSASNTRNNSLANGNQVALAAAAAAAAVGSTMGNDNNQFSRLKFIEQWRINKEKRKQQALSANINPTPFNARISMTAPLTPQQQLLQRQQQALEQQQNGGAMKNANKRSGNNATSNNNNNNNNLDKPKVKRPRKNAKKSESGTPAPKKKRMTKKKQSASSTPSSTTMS
The assay is described as above.

The target in assay [3] is Gcn5-TAP (S. cerevisiae) (UniProt Q03330). Nature of the assay: co-IP; Gcn5-TAP purified by a single affinity step from cells expressing Spt20-MYC, TEV elution, western blot with MYC and CBP antibodies; WT, not5Δ and tdh3Δ cells.
In assay [4] the target is T1, Ada2-TAP (S. cerevisiae). Nature of the assay: co-IP; purification of Ada2, Spt20 or Gcn5 from deletion strains (spt20Δ, ada2Δ, sgf73Δ, gcn5Δ), Supplementary Figure S3; tags and read-out not shown. The source holds these as a separate data set.
Assay [5] deals with Gcn5-TAP (S. cerevisiae) (UniProt Q03330). Described as above.
A further assay deals with T3, Ada1-TAP (S. cerevisiae) (UniProt Q12060).
T3 sequence: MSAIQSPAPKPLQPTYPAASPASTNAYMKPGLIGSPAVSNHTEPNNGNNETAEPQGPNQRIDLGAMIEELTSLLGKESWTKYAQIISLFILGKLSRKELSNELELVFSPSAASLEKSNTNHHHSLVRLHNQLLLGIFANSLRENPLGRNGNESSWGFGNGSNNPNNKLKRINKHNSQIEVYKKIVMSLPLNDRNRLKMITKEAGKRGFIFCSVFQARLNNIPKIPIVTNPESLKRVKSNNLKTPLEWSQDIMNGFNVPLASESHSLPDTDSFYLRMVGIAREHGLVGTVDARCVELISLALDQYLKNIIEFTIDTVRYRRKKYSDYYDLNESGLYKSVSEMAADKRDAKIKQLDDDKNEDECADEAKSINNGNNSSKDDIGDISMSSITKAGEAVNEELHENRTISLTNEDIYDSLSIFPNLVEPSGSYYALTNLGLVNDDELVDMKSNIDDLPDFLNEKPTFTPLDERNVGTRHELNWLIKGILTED
Nature of the assay: co-IP; single affinity purification step of the TAP-tagged subunit on IgG sepharose, TEV elution, 1-20% sucrose gradient, fractions blotted with anti-CBP, anti-Taf9 and anti-Spt3; WT and not5Δ cells (Ada1-TAP: WT and ada2Δ).

A further assay has as its target T4, Ada3-TAP (S. cerevisiae) (UniProt P32494).
T4 sequence: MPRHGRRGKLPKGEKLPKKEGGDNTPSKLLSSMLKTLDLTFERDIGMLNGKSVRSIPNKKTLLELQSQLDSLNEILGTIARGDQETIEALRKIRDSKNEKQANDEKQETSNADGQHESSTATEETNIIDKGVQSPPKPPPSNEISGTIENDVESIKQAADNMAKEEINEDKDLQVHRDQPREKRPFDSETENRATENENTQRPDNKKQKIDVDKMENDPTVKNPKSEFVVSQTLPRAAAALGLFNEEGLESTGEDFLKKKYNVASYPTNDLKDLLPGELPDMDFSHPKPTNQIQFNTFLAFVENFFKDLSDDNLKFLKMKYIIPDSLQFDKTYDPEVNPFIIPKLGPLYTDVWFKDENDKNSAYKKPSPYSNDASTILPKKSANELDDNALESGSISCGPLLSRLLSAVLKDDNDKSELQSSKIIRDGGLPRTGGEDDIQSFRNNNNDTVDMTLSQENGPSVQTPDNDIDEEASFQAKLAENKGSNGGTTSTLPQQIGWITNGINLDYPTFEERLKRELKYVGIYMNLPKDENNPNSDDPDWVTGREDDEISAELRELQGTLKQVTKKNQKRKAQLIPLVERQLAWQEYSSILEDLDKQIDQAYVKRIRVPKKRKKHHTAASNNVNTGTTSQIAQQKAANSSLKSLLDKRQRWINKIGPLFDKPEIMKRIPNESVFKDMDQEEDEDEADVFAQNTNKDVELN
The assay is described as above.

The target in assay [6] is T5, Sgf29-TAP (S. cerevisiae) (UniProt P25554).
T5 sequence: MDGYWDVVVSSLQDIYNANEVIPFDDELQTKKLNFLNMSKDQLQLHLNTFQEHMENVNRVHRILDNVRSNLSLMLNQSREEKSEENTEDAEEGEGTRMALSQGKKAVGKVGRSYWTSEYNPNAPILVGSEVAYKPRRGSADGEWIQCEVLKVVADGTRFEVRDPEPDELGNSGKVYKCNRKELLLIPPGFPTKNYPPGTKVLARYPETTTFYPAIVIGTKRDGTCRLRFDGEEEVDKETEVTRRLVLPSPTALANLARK
The assay is described as above.

Assay [7] has as its target T2, Spt20-TAP (S. cerevisiae). Described as above.

The source of these data is publication PMC5388395.

Where two headings read alike, the source gives them in different places. No constants are given. Whether binding was seen depends on the method and setting. Binding seen in cells or lysates may run through a third protein. Some results given as binding are weak or reduced against the parent protein; the word gives no strength. For some of these results: Sequences can lack the tags named with a protein.

Take Gcn5 (from UniProt Q03330 1-439): the binding result (with Ada2-TAP (S. cerevisiae) [1]; in assay [2]) was “binds” throughout.

B1: Spt20-MYC (protein, UniProt P50875 1-604)
chain: T2 sequence
As to B1, in the assay with Gcn5-TAP (S. cerevisiae) [3], the binding entry is recorded as “binds”.

B2: Spt20 (protein, UniProt P50875 1-604)
chain: T2 sequence
As for B2, the binding entry in the assay with Ada2-TAP (S. cerevisiae) [4] and in the assay with Gcn5-TAP (S. cerevisiae) [5] was “binds” in each case.

B3: Taf9 (protein, UniProt Q05027 1-157)
chain: MNGGGKNVLNKNSVGSVSEVGPDSTQEETPRDVRLLHLLLASQSIHQYEDQVPLQLMDFAHRYTQGVLKDALVYNDYAGSGNSAGSGLGVEDIRLAIAARTQYQFKPTAPKELMLQLAAERNKKALPQVMGTWGVRLPPEKYCLTAKEWDLEDPKSM
As for B3, the binding entry (with Ada1-TAP (S. cerevisiae); with Ada3-TAP (S. cerevisiae); in assay [6]; in assay [7]) was “binds” each time.

B4: Spt3 (protein, UniProt P06844 1-337)
chain: MMDKHKYRVEIQQMMFVSGEINDPPVETTSLIEDIVRGQVIEILLQSNKTAHLRGSRSILPEDVIFLIRHDKAKVNRLRTYLSWKDLRKNAKDQDASAGVASGTGNPGAGGEDDLKKAGGGEKDEKDGGNMMKVKKSQIKLPWELQFMFNEHPLENNDDNDDMDEDEREANIVTLKRLKMADDRTRNMTKEEYVHWSDCRQASFTFRKNKRFKDWSGISQLTEGKPHDDVIDILGFLTFEIVCSLTETALKIKQREQVLQTQKDKSQQSSQDNTNFEFASSTLHRKKRLFDGPENVINPLKPRHIEEAWRVLQTIDMRHRALTNFKGGRLSSKPIIM
Regarding B4, the binding entry (with Ada1-TAP (S. cerevisiae); in the assay with Ada3-TAP (S. cerevisiae); in [6]; in [7]) was “binds” throughout.
